Measurements reported in PubChem BioAssay AID1508597 (Cure First, 2020).

- Test: 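Genes whose silencing sensitises or protects ovarian cancer cells against rucaparib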 (primary screen)
- Cells: human ovarian carcinoma lines grown from tumours: OCI-P5x (papillary serous) and OCI-C5x (clear cell)
- Knock-down reagent: siRNA pool against human genes, 1.25 pmol siRNA per well
- Timing: 72 h or 96 h, depending on the cell culture
- Treatment: rucaparib 20 µM (about IC30) or vehicle, present until read-out
- Measured: 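ATP luminescence measured at 72 or 96 h according to the culture, then normalised and expressed as percent viability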
- Direction: viability, normalised: higher = more viable cells remaining
- Active means: 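a well counts as a hit if its normalised viability is under 80 percent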
- Meaning of the calls: active = viability under 80%; inactive = viability 80% or more
Shown is an unselected part of about 2,100 reagents tested. 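Calls flag viability under 80% in either arm, not effects specific to rucaparib; the reference for percent is not stated.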 Unmarked entries are inactive. The record does not give: the 100% reference.

{"gene": "TBP", "rucaparib or vehicle": "Rucaparib", "cell line": "OCI-C5x (clear cell)", "technical replicate": "1", "viability, normalised (%)": "55.1 (active)"}
{"gene": "TBP", "rucaparib or vehicle": "Rucaparib", "cell line": "OCI-C5x (clear cell)", "technical replicate": "2", "viability, normalised (%)": "59.5 (active)"}
{"gene": "TBP", "rucaparib or vehicle": "Rucaparib", "cell line": "OCI-C5x (clear cell)", "technical replicate": "3", "viability, normalised (%)": "53.5 (active)"}
{"gene": "TBP", "rucaparib or vehicle": "Rucaparib", "cell line": "OCI-P5x (serous)", "technical replicate": "1", "viability, normalised (%)": "76.1 (active)"}
{"gene": "TBP", "rucaparib or vehicle": "Rucaparib", "cell line": "OCI-P5x (serous)", "technical replicate": "2", "viability, normalised (%)": 81.3}
{"gene": "TBP", "rucaparib or vehicle": "Rucaparib", "cell line": "OCI-P5x (serous)", "technical replicate": "3", "viability, normalised (%)": 93.6}
{"gene": "TBP", "rucaparib or vehicle": "Vehicle", "cell line": "OCI-C5x (clear cell)", "technical replicate": "1", "viability, normalised (%)": "65.3 (active)"}
{"gene": "TBP", "rucaparib or vehicle": "Vehicle", "cell line": "OCI-C5x (clear cell)", "technical replicate": "2", "viability, normalised (%)": "57.4 (active)"}
{"gene": "TBP", "rucaparib or vehicle": "Vehicle", "cell line": "OCI-C5x (clear cell)", "technical replicate": "3", "viability, normalised (%)": "59 (active)"}
{"gene": "TBP", "rucaparib or vehicle": "Vehicle", "cell line": "OCI-P5x (serous)", "technical replicate": "1", "viability, normalised (%)": 87.8}
{"gene": "TBP", "rucaparib or vehicle": "Vehicle", "cell line": "OCI-P5x (serous)", "technical replicate": "2", "viability, normalised (%)": 90.5}
{"gene": "TBP", "rucaparib or vehicle": "Vehicle", "cell line": "OCI-P5x (serous)", "technical replicate": "3", "viability, normalised (%)": "54.6 (active)"}
{"gene": "EZH2", "rucaparib or vehicle": "Rucaparib", "cell line": "OCI-C5x (clear cell)", "technical replicate": "1", "viability, normalised (%)": "52.1 (active)"}
{"gene": "EZH2", "rucaparib or vehicle": "Rucaparib", "cell line": "OCI-C5x (clear cell)", "technical replicate": "2", "viability, normalised (%)": "40 (active)"}
{"gene": "EZH2", "rucaparib or vehicle": "Rucaparib", "cell line": "OCI-C5x (clear cell)", "technical replicate": "3", "viability, normalised (%)": "48.3 (active)"}
{"gene": "EZH2", "rucaparib or vehicle": "Rucaparib", "cell line": "OCI-P5x (serous)", "technical replicate": "1", "viability, normalised (%)": "79.1 (active)"}
{"gene": "EZH2", "rucaparib or vehicle": "Rucaparib", "cell line": "OCI-P5x (serous)", "technical replicate": "2", "viability, normalised (%)": "68.1 (active)"}
{"gene": "EZH2", "rucaparib or vehicle": "Rucaparib", "cell line": "OCI-P5x (serous)", "technical replicate": "3", "viability, normalised (%)": "68.7 (active)"}
{"gene": "EZH2", "rucaparib or vehicle": "Vehicle", "cell line": "OCI-C5x (clear cell)", "technical replicate": "1", "viability, normalised (%)": "60.6 (active)"}
{"gene": "EZH2", "rucaparib or vehicle": "Vehicle", "cell line": "OCI-C5x (clear cell)", "technical replicate": "2", "viability, normalised (%)": "49.8 (active)"}
{"gene": "EZH2", "rucaparib or vehicle": "Vehicle", "cell line": "OCI-C5x (clear cell)", "technical replicate": "3", "viability, normalised (%)": "40.8 (active)"}
{"gene": "EZH2", "rucaparib or vehicle": "Vehicle", "cell line": "OCI-P5x (serous)", "technical replicate": "1", "viability, normalised (%)": "68.6 (active)"}
{"gene": "EZH2", "rucaparib or vehicle": "Vehicle", "cell line": "OCI-P5x (serous)", "technical replicate": "2", "viability, normalised (%)": 84.6}
{"gene": "EZH2", "rucaparib or vehicle": "Vehicle", "cell line": "OCI-P5x (serous)", "technical replicate": "3", "viability, normalised (%)": "78.8 (active)"}

Next part (5 carried over from the part before).
{"gene": "EZH2", "rucaparib or vehicle": "Vehicle", "cell line": "OCI-C5x (clear cell)", "technical replicate": "2", "viability, normalised (%)": "49.8 (active)"}
{"gene": "EZH2", "rucaparib or vehicle": "Vehicle", "cell line": "OCI-C5x (clear cell)", "technical replicate": "3", "viability, normalised (%)": "40.8 (active)"}
{"gene": "EZH2", "rucaparib or vehicle": "Vehicle", "cell line": "OCI-P5x (serous)", "technical replicate": "1", "viability, normalised (%)": "68.6 (active)"}
{"gene": "EZH2", "rucaparib or vehicle": "Vehicle", "cell line": "OCI-P5x (serous)", "technical replicate": "2", "viability, normalised (%)": 84.6}
{"gene": "EZH2", "rucaparib or vehicle": "Vehicle", "cell line": "OCI-P5x (serous)", "technical replicate": "3", "viability, normalised (%)": "78.8 (active)"}
{"gene": "PHKG1", "rucaparib or vehicle": "Rucaparib", "cell line": "OCI-C5x (clear cell)", "technical replicate": "1", "viability, normalised (%)": "52.6 (active)"}
{"gene": "PHKG1", "rucaparib or vehicle": "Rucaparib", "cell line": "OCI-C5x (clear cell)", "technical replicate": "2", "viability, normalised (%)": "42.1 (active)"}
{"gene": "PHKG1", "rucaparib or vehicle": "Rucaparib", "cell line": "OCI-C5x (clear cell)", "technical replicate": "3", "viability, normalised (%)": "51 (active)"}
{"gene": "PHKG1", "rucaparib or vehicle": "Rucaparib", "cell line": "OCI-P5x (serous)", "technical replicate": "1", "viability, normalised (%)": "44.3 (active)"}
{"gene": "PHKG1", "rucaparib or vehicle": "Rucaparib", "cell line": "OCI-P5x (serous)", "technical replicate": "2", "viability, normalised (%)": "48.9 (active)"}
{"gene": "PHKG1", "rucaparib or vehicle": "Rucaparib", "cell line": "OCI-P5x (serous)", "technical replicate": "3", "viability, normalised (%)": "47.8 (active)"}
{"gene": "PHKG1", "rucaparib or vehicle": "Vehicle", "cell line": "OCI-C5x (clear cell)", "technical replicate": "1", "viability, normalised (%)": "58 (active)"}
{"gene": "PHKG1", "rucaparib or vehicle": "Vehicle", "cell line": "OCI-C5x (clear cell)", "technical replicate": "2", "viability, normalised (%)": "51.6 (active)"}
{"gene": "PHKG1", "rucaparib or vehicle": "Vehicle", "cell line": "OCI-C5x (clear cell)", "technical replicate": "3", "viability, normalised (%)": "62.6 (active)"}
{"gene": "PHKG1", "rucaparib or vehicle": "Vehicle", "cell line": "OCI-P5x (serous)", "technical replicate": "1", "viability, normalised (%)": "44.9 (active)"}
{"gene": "PHKG1", "rucaparib or vehicle": "Vehicle", "cell line": "OCI-P5x (serous)", "technical replicate": "2", "viability, normalised (%)": "56 (active)"}
{"gene": "PHKG1", "rucaparib or vehicle": "Vehicle", "cell line": "OCI-P5x (serous)", "technical replicate": "3", "viability, normalised (%)": "47.4 (active)"}
